Test results taken from PMC8956508.
No constants are given. Whether binding was seen depends on the method and setting. In cells and extracts the contact can be indirect. Some results given as binding are weak or reduced against the parent protein; the word gives no strength.

Sequences of proteins named here, by UniProt entry; tags and fusion partners are left off.
UniProt P15884: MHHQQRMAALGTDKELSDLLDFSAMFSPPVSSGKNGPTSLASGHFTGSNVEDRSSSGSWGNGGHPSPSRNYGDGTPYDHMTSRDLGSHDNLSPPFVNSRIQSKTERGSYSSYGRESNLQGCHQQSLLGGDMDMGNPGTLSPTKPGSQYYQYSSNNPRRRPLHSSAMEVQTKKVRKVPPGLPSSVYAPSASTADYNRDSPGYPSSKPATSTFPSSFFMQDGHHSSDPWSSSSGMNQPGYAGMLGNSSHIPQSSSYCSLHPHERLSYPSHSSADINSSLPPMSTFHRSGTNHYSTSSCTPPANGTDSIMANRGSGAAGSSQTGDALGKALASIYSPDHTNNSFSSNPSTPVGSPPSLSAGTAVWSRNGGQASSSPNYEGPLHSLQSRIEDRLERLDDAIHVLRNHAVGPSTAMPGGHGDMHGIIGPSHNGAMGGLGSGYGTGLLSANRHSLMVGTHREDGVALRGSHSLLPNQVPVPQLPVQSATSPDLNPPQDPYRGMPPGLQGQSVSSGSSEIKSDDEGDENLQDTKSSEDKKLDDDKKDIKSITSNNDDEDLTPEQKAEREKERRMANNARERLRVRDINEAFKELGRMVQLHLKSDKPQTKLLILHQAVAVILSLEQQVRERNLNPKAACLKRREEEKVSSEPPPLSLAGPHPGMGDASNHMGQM

What was measured:
[1] = molecular target: T1, DUSP6 (human (endogenous in HepG2)) (UniProt Q16828); test: co-IP; DUSP6 antibody; PBLD-upregulated and control HepG2 cells after transfection with SKP2 plasmids; western blot of SKP2, DUSP6 and PBLD
T1 sequence: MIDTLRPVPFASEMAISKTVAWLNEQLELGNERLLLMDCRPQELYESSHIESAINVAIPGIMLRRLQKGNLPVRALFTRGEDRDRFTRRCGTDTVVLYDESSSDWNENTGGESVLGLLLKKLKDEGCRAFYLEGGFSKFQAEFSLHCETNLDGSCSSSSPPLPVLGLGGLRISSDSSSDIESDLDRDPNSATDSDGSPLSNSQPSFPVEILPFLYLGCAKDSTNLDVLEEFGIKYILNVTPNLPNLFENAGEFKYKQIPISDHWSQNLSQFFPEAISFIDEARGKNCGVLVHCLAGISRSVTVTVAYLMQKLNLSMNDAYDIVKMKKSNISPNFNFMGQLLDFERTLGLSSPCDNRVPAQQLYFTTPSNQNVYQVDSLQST

[2] = molecular target: T1, DUSP6 (human (endogenous in HepG2)); test: co-IP; HepG2 cells lysed in cold NP-40 with protease and phosphatase inhibitors; antibody (2 ug) on protein A/G magnetic beads, incubated overnight at 4 °C; western blot; anti-rabbit IgG as negative control
[3] = molecular target: TCF4 (human (endogenous in HepG2)) (UniProt P15884); test: as above

binding [1]: binds | binding [2]: binds | binding [3]: binds
B1: phenazine biosynthesis-like domain-containing protein (PBLD) (protein, UniProt P30039 1-288)
chain: MKLPIFIADAFTARAFRGNPAAVCLLENELDEDMHQKIAREMNLSETAFIRKLHPTDNFAQSSCFGLRWFTPASEVPLCGHATLASAAVLFHKIKNMNSTLTFVTLSGELRARRAEDGIVLDLPLYPAHPQDFHEVEDLIKTAIGNTLVQDICYSPDTQKLLVRLSDVYNRSFLENLKVNTENLLQVENTGKVKGLILTLKGEPGGQTQAFDFYSRYFAPWVGVAEDPVTGSAHAVLSSYWSQHLGKKEMHAFQCSHRGGELGISLRPDGRVDIRGGAAVVLEGTLTA
